Results from PubChem BioAssay AID2685 (National Center for Advancing Translational Sciences (NCATS), 2010).
The other results are listed elsewhere or left out. Shown are side measurements of this screen, not its main read-out; they come without a call. Compounds called inactive in the main read-out are mostly missing here. The note in brackets gives the kind of curve behind each potency; many fits are weak.

Test: qHTS Assay for Lipid Storage Modulators in Drosophila S3 Cells;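 on cell number change: cells counted by Cell Tracker Red CMTPX staining in the red channel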
Settings: BODIPY lipid droplet fluorescence, 18-24 h; for cell number change: measured here: cell count max response, cells fed with added oleic acid
In short: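 Drosophila S3 cells loaded with oleic acid (400 uM, as added) and compounds at several concentrations; lipid droplets imaged by 488-nm laser-scanning cytometry, 500–530 nm intensity and object ratio to cell channel. Percent activity normalized to 20 uM Triacsin C.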

[1] = measured here: cell number channel AC50, cells fed with added oleic acid
[2] = measured here: lipid fluorescence (Fed channel) AC50, cells fed with added oleic acid

SMILES	cell number change [%]	AC50 [1]	AC50 [2]
CCCCCCC(C)n1[nH]c(=O)c2c(C)cc(=O)[nH]c21 (centres undefined)	-95.6	29.1 µM [falling, single point]	–
COc1ccc(CCNc2c(C)c(C)nc3ncnn23)cc1	–	–	1.84 µM [falling, partial curve, poor fit]
CCOc1ccccc1N1C(=O)CC(Sc2ncccc2C(=O)O)C1=O (centres undefined)	–	6.51 µM [falling, single point]	6.51 µM [falling, single point]
CC(C)(C)C1N=C(c2ccc3ccccc3c2)OC1=O (centres undefined)	-3.73	–	0.206 µM [rising, full curve, poor fit]
CS(=O)(=O)N(CC(=O)N/N=C/c1cccc2c1OCCO2)c1ccccc1Br	11	–	0.461 µM [rising, full curve, poor fit]
CCOC(=O)c1c(N=CN(C)C)c(C#N)n2c1CCC2	7.54	–	18.4 µM [rising, single point]
Cc1c(NC(=O)C2CCCCC2)cc(C(=O)N2CCOCC2)cc1[N+](=O)[O-]	55.1	16.4 µM [rising, single point]	–
CCCn1c(SCC(=O)NCCc2ccccc2)nnc1-c1ccccn1	–	–	0.58 µM [rising, single point]
O=C(NCc1ccc(F)cc1)c1cc2ccccn2n1	2.92	–	–
O=C(OCC(=O)N1CCN(C(=O)c2ccco2)CC1)c1ccccc1	-0.95	0.58 µM [rising, partial curve, poor fit]	–
Cc1cccc(OCC(=O)N(Cc2ccccc2)c2c(N)n(Cc3ccccc3)c(=O)[nH]c2=O)c1	-1.37	–	32.6 µM [rising, single point]
O=C(CCC(=O)c1cccs1)OCC(=O)c1ccccc1F	-10.7	–	–
CC(N=C1NS(=O)(=O)c2ccccc21)C(=O)NCc1ccncc1 (centres undefined)	-3.5	–	–
COC(=O)C1CCN(C(=O)c2cc3c(=O)n4cccc(C)c4nc3n2Cc2ccccc2)CC1	3.3	6.51 µM [falling, single point]	6.51 µM [falling, single point]
O=S(=O)([O-])CCC[n+]1c(SCCCS(=O)(=O)O)sc2ccc(Cl)cc21	79	29.1 µM [rising, single point]	–
CCCCC(=NCCc1c(C)[nH]c2ccc(OC)cc12)C1=C(O)CC(c2ccccc2)CC1=O (centres undefined)	25.2	0.731 µM [rising, full curve]	–
COc1ccc(Cc2nnc(SCC(=O)c3cccc([N+](=O)[O-])c3)n2C)cc1	-29.1	–	–
C=C(C)CSc1nc2ncc(Cl)cc2[nH]1	31	–	–
COc1ccc(-c2cn(-c3ccc(OC)cc3)c3[n+]2-c2ccccc2CC3)cc1	-55.9	6.51 µM [falling, partial curve]	4.11 µM [falling, full curve]
CCOCC(=O)Nc1ncc(S(=O)(=O)c2ccc([N+](=O)[O-])cc2)s1	26.2	–	6.51 µM [rising, single point]

No new results follow: entries from further up.
SMILES	cell number change [%]	AC50 [1]	AC50 [2]
O=S(=O)([O-])CCC[n+]1c(SCCCS(=O)(=O)O)sc2ccc(Cl)cc21	79	29.1 µM [rising, single point]	–
CCCCC(=NCCc1c(C)[nH]c2ccc(OC)cc12)C1=C(O)CC(c2ccccc2)CC1=O (centres undefined)	25.2	0.731 µM [rising, full curve]	–
COc1ccc(Cc2nnc(SCC(=O)c3cccc([N+](=O)[O-])c3)n2C)cc1	-29.1	–	–

Additional results follow.

SMILES	cell number change [%]	AC50 [1]	AC50 [2]
COc1ccc(CCN=C(N)NS(=O)(=O)c2ccccc2)cc1OC	-5.65	–	–
O=C(Nc1nc2c(F)cc(F)cc2s1)c1ccco1	6.05	–	29.1 µM [rising, single point]
O=C(Nc1cccc(O)c1)c1cc(S(=O)(=O)N2CCCC2)ccc1Cl	-21.6	0.164 µM [falling, full curve, poor fit]	0.82 µM [falling, full curve]
CCC(=O)NCCNc1ccc([N+](=O)[O-])cn1	-17.2	2.31 µM [rising, partial curve]	2.59 µM [rising, partial curve]
Cc1cccc(C(=O)NC2CC3CCCC(C2)N3Cc2ccccc2)c1 (centres undefined)	11	–	29.1 µM [rising, single point]
CCOC(=O)c1c(/N=C/c2ccccc2O)sc2c1CCC2	-45.5	29.1 µM [falling, single point]	29.1 µM [falling, single point]
O=S(=O)(Nc1cccc(-n2cnnn2)c1)c1cc(Br)ccc1Br	–	–	0.13 µM [falling, full curve, poor fit]
COc1cc(CC(=O)OCC(=O)Nc2ccc(Cl)c(S(=O)(=O)N(C)C)c2)cc(OC)c1OC	-24.8	2.59 µM [falling, full curve, poor fit]	2.31 µM [falling, partial curve, poor fit]
O=C(CN1C(=O)C2CCCCC2C1=O)Nc1nc(-c2ccccn2)cs1 (centres undefined)	48.5	29.1 µM [rising, single point]	29.1 µM [rising, single point]
Cc1ccc(Cn2ccc(O)c(Cc3ccccc3)c2=O)cc1	-46.3	6.51 µM [falling, single point]	–
O=C(COc1ncnc2cc([N+](=O)[O-])ccc12)NCc1ccc2c(c1)OCO2	32.4	11.6 µM [rising, partial curve, poor fit]	–
Cc1ccc(S(=O)(=O)N2CCC(C(=O)OCC(=O)NC3(C#N)CCCCC3)CC2)cc1C	7.05	–	–
CCOc1ccc(-n2c(SCC(=O)NCc3ccco3)nc3c(c2=O)SCC3)cc1	11.6	–	0.731 µM [rising, partial curve]
O=C(O)c1ccc(NC(=S)NC(=O)c2cncc(Br)c2)cc1	–	–	29.1 µM [falling, single point]
CCCN(CCC)c1cc(Cl)nc(N)n1	51	–	–
COC(=O)NCC(c1ccc2c(c1)OCO2)N1CCN(c2ccccc2)CC1 (centres undefined)	-1.19	–	–
Cc1ccc(SCC(=O)NCCc2ccccc2)cc1	9.97	–	–
CN1C(=O)c2ccc(S(=O)(=O)c3ccc(C(=O)O)cc3)cc2C1=O	-61.3	29.1 µM [falling, single point]	0.00651 µM [falling, full curve, poor fit]
O=C(COc1ccc2ccc(=O)oc2c1)NCCCn1ccnc1	7.16	–	2.91 µM [rising, single point]
CC(=O)N1N=C(c2cccc(O)c2)CC1c1cccs1 (centres undefined)	10.9	–	18.4 µM [rising, single point]
